Consider 72 sequences from article PMC7862700.

The chains behind the UniProt entries cited, without tags or fusion partners. Where a name states a change or a piece, a line headed by the entry shows the natural chain unless it says otherwise.
UniProt Q01892: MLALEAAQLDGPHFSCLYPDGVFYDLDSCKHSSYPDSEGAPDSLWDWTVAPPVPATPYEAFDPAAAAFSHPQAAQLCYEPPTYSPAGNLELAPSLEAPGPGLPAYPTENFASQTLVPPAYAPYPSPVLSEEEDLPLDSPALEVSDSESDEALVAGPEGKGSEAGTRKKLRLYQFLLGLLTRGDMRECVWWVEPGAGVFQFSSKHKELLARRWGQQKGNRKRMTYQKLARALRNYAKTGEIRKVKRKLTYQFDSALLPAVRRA
UniProt Q99607: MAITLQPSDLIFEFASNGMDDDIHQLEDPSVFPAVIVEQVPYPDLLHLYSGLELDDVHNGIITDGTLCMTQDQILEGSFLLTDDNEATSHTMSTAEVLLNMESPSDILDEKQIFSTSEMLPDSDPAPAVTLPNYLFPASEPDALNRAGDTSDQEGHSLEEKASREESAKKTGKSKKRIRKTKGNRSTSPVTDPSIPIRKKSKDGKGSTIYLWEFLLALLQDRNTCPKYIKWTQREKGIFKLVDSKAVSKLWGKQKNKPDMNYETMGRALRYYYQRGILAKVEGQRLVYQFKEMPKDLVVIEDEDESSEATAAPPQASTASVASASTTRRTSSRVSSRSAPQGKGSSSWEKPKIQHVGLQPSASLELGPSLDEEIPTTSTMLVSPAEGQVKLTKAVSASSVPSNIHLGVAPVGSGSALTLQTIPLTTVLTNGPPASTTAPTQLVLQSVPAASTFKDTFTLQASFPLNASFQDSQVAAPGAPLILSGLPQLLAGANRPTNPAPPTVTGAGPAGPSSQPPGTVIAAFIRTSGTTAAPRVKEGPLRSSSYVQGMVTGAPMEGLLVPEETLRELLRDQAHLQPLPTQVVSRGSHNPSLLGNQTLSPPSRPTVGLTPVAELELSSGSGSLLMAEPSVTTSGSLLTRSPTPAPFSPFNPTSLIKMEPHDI

What all share (experiment): DAPPL (digital affinity profiling via proximity ligation, sequencing)
Conditions in all cases: 10 mM Tris-HCl pH 7.5, 50 mM NaCl, 1 mM DTT, 4% glycerol, room temperature, 30 min; GST-TFs on glutathione beads, 16-mer random dsDNA library, 0.1% …; high values mean tight binding; double strand, one strand shown; scale: fold enrichment (6-mer frequency, TF over GST control)

Assay [1] has as its target T1, EHF (UniProt Q9NZC4).
T1 sequence: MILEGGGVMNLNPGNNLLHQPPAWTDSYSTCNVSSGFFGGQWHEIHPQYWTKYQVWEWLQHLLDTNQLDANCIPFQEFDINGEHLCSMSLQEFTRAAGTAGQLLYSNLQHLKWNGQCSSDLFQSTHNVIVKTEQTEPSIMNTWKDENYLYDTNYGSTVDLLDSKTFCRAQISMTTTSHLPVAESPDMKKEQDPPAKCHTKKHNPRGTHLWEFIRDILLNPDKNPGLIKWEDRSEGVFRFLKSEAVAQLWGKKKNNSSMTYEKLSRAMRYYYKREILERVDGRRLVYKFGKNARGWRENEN

For assay [2], the target named is SPIB (UniProt Q01892).
The target in assay [3] is ELF4 (UniProt Q99607).
The target in assay [4] is T2, ETV3L (UniProt Q6ZN32).
T2 sequence: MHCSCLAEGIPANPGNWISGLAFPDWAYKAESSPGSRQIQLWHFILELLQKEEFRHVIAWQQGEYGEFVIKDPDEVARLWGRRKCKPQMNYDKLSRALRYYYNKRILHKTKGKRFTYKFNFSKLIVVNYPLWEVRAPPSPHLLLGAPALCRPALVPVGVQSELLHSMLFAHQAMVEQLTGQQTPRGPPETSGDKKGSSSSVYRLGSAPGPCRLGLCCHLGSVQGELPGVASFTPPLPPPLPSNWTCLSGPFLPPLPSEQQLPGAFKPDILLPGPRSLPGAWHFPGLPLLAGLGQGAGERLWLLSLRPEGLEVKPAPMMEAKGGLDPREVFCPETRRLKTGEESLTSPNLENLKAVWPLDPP

The target in assay [5] is T3, ETV2 (UniProt O00321).
T3 sequence: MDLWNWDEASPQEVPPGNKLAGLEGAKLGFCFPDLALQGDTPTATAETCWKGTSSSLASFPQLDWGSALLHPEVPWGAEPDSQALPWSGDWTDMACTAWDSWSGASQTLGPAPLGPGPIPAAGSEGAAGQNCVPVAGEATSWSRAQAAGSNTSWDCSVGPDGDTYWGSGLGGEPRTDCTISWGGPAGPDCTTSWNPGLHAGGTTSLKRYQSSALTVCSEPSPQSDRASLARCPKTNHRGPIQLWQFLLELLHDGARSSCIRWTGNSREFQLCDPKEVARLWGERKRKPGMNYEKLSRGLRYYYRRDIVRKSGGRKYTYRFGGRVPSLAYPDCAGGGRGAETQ

The list shows a part of the results, in another mix than the full data. For some assays here: At the low end of the ranking, values are background and their order means little.

For AATGAG, the binding signal amounted to 1.18 in assay [1], 1.08 in assay [2] and 1.14 in assay [3].

With TTGTCT, the binding signal in assay [1] and in assay [3] was 1.18 in each case. For the sequence AAAAGT, the binding signal in assay [1] and in assay [3] was 1.1 throughout. For TGTACT, the binding signal in assay [1] was found to be 1.3; in assay [3], 1.29.

As to TGATCT, the values for the binding signal in assay [1], in assay [3] and in assay [4] were 1.22, 1.16 and 1.1, respectively.

Consider CCATTT, for which the values for the binding signal in assay [2], in assay [3] and in assay [4] were 1.37, 1.32 and 1.25, respectively. For AACATC, the binding signal worked out at 1.51 in assay [1] and 1.41 in assay [3].

Consider ATCTAA, for which the binding signal in assay [1] and in assay [3] was 1.23 throughout. Take ACCGAC: the binding signal in assay [1] is 1.23; in assay [3], 1.31; in assay [4] it was 1.44. Turning to CTATGA, the values for the binding signal in assay [2], in assay [3] and in assay [4] were 1.13, 1.1 and 0.981, respectively. As for CATTCC, the values for the binding signal in assay [1] and in assay [3] were 1.19 and 1.27, respectively.

With TCAACC, the binding signal in assay [1] turned out to be 1.15; in assay [2], 1.17; in assay [3], 1.19. On to ACTTAT, for which the binding signal in assay [1] is 1.41; in assay [2] it was 1.38; in assay [3], 1.35.

Take GAACTC: the binding signal is 1.28 in assay [1], 1.28 in assay [2] and 1.26 in assay [3].

As for TTGCAT, the figures for the binding signal in assay [2] and in assay [3] were 1.38 and 1.4, respectively.

Turning to ATGGAC, the binding signal is 1.21 in assay [1], 1.2 in assay [3] and 1.21 in assay [4].

On to AACAAA, for which the binding signal was determined as 1.17 in assay [1] and 1.16 in assay [3].

Turning to AAAACA, the binding signal in assay [1] came out at 1.31; in assay [3], 1.39.

With TTTCTC, the binding signal is 1.59 in assay [1] and 1.6 in assay [3]. As to GAATAC, the binding signal in assay [1] came to 0.999; in assay [2], 0.984; in assay [3], 1.01. Regarding ACTACC, the binding signal in assay [1] was found to be 1.51; in assay [3] it was 1.66.

Regarding GCTCCA, the figures for the binding signal in assay [1] and in assay [3] were 1.19 and 1.22, respectively. For the sequence TAAGGT, the binding signal in assay [2] was determined as 1.07; in assay [3] it was 1.19; in assay [4] it was 0.991. In the case of CTTTCA, the results for the binding signal in assay [1], in assay [2] and in assay [3] were 1.3, 1.28 and 1.44, respectively.

In the case of GATCCT, the binding signal was determined as 1.33 in assay [2] and 1.35 in assay [3]. On to ACCCGC, for which the binding signal in assay [2] came out at 1.27; in assay [3] it was 1.35. As for ACTACT, the results for the binding signal in assay [1] and in assay [3] were 1.34 and 1.22, respectively. With TTTAGC, the binding signal is 1.12 in assay [1] and 1.2 in assay [3]. Sequence TACGTA displayed a binding signal in assay [5] of 1.33. For the sequence GCTCAA, the binding signal in assay [2] was 1.1; in assay [3], 1.16. As for CGTTAA, the binding signal in assay [2] was 1.13; in assay [3], 1.12. The sequence CCAAAA gave a binding signal in assay [5] of 1.28. Regarding CTCTCA, the values for the binding signal in assay [2] and in assay [3] were 1.44 and 1.42, respectively.

With CTCCTT, the figures for the binding signal in assay [2] and in assay [3] were 1.82 and 1.8, respectively. AAATAT showed a binding signal in assay [5] of 1.49. On the same count and under the same terms, as for TAACTC, the figure is 0.989.

Turning to TCCATC, the binding signal was found to be 1.16 in assay [2] and 1.13 in assay [3]. CGTCCG registered a binding signal in assay [5] of 1.16. CGATAT: in assay [5], the binding signal was found to be 1.19. TTGCGC: the binding signal in assay [2] came to 0.996; in assay [3] it was 1.06. In assay [5], CTTGTG showed a binding signal of 1.44.

With TATGAA, the binding signal in assay [5] turned out to be 1.17. In turn, ATTTCT gave a binding signal in assay [5] of 1.4.

For the sequence TTGACC, the binding signal in assay [5] was 1.38. Regarding TCCTCC, the binding signal was found to be 1.6 in assay [2] and 1.62 in assay [3]. For AATAGA, the results for the binding signal in assay [2] and in assay [3] were 1.05 and 1.07, respectively. Take CGCCGA: the binding signal in assay [5] is 1.16.

Regarding CGACTA, the binding signal amounted to 1.32 in assay [2] and 1.48 in assay [3]. On to GTATTA, for which the binding signal in assay [2] was found to be 1.07; in assay [3], 1.08. Regarding CCTGGA, the results for the binding signal in assay [2] and in assay [3] were 1.5 and 1.47, respectively. In the case of TAGTAC, the binding signal was 1.06 in assay [2] and 1.15 in assay [3]. For TTATGA, the binding signal is 1.14 in assay [2] and 1.05 in assay [3].

Turning to CGCTAG, the values for the binding signal in assay [2] and in assay [3] were 0.994 and 1.11, respectively.

As to ATACTG, the binding signal in assay [2] was found to be 0.982; in assay [3], 1.16. Take CTTCGC: the binding signal in assay [5] worked out at 1.62.

With ATAGCT, the results for the binding signal in assay [2] and in assay [3] were 1.09 and 1.07, respectively. On the same counts, the results for ATTCCG are 1.78 and 1.61. For the sequence CACCAT, the binding signal in assay [5] was found to be 1.17. As to GTAAAC, the binding signal in assay [5] is 1.15. In the case of CTCGTA, the binding signal stood at 1.38 in assay [2] and 1.35 in assay [3]. As for TTCAAA, the binding signal in assay [2] came out at 1.3; in assay [3] it was 1.26. As to TACTTT, in assay [5], the binding signal worked out at 1.33. With AATGGG, the values for the binding signal in assay [2] and in assay [3] were 1.22 and 1.16, respectively. With ATTGAT, the binding signal in assay [2] is 1.16; in assay [3], 1.32. In turn, AAGCAC registered a binding signal in assay [5] of 1.22. In assay [5], ATTGAA registered a binding signal of 1. Still for that read-out and setting: under ACGGCC stands 1.01; under ACTTCA, 1.37; under AGCCTC, 0.926. For the sequence TTATTG, the binding signal in assay [5] worked out at 1.33. As for CTGCCC, the binding signal came out at 1.38 in assay [5] and 1.22 in assay [4]. Regarding GGTCTT, in assay [5], the binding signal stood at 1.08.
